From PMC5789870
No constants are given. Whether binding was seen depends on the method and setting. Binding seen in cells or lysates may run through a third protein.

T1: P2X1 receptor (mouse (endogenous in mouse bladder)) (UniProt P51576)
T1 sequence: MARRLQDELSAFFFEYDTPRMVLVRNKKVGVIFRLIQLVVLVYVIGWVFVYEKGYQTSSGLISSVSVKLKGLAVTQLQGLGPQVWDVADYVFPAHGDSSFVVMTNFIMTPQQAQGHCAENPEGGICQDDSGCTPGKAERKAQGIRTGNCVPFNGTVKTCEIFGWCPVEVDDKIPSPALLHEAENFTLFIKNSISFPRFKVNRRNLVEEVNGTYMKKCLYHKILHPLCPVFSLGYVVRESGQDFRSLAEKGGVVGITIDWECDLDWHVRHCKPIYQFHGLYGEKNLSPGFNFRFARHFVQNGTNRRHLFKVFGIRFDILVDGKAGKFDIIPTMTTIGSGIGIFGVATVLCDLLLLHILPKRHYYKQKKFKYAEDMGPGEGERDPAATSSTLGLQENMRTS

T2: P2X4 receptor (mouse (endogenous in mouse bladder)) (UniProt Q9JJX6)
T2 sequence: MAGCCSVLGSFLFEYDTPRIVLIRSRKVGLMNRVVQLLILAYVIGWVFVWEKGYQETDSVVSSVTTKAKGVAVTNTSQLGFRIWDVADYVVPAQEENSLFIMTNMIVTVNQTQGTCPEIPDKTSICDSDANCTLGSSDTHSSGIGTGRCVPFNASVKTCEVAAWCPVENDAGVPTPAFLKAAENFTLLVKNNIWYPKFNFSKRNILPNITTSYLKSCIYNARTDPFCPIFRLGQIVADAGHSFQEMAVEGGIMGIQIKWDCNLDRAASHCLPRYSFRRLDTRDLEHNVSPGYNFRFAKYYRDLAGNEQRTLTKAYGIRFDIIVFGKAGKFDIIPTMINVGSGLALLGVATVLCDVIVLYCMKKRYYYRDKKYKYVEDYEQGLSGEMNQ

B1: P2X4 receptor (receptor, UniProt Q9JJX6 1-388)
chain: T2 sequence
B2: 5′-nucleotidase (Nt5e) (enzyme, UniProt Q61503 29-551)
chain: WELTILHTNDVHSRLEQTSDDSTKCLNASLCVGGVARLFTKVQQIRKEEPNVLFLDAGDQYQGTIWFTVYKGLEVAHFMNILGYDAMALGNHEFDNGVEGLIDPLLRNVKFPILSANIKARGPLAHQISGLFLPSKVLSVGGEVVGIVGYTSKETPFLSNPGTNLVFEDEISALQPEVDKLKTLNVNKIIALGHSGFEMDKLIAQKVRGVDIVVGGHSNTFLYTGNPPSKEVPAGKYPFIVTADDGRQVPVVQAYAFGKYLGYLKVEFDDKGNVITSYGNPILLNSSIPEDATIKADINQWRIKLDNYSTQELGRTIVYLDGSTQTCRFRECNMGNLICDAMINNNLRHPDEMFWNHVSMCIVNGGGIRSPIDEKNNGTITWENLAAVLPFGGTFDLVQLKGSTLKKAFEHSVHRYGQSTGEFLQVGGIHVVYDINRKPWNRVVQLEVLCTKCRVPIYEPLEMDKVYKVTLPSYLANGGDGFQMIKDELLKHDSGDQDISVVSEYISKMKVVYPAVEGRIKFS
B3: P2X1 receptor (receptor, UniProt P51576 1-399)
chain: T1 sequence

Columns and labels:
[1] = target: T1, P2X1 receptor (mouse (endogenous in mouse bladder)); assay: co-IP; anti-P2X1 antibody (Alomone APR-001) immobilised on amine-reactive resin beads (Pierce Co-IP Kit), incubated with native mouse bladder lysate (wild type and P2X4-/-); bound (IP) and non-bound (FT) fractions blotted for P2X1, P2X4 and Nt5e
[2] = target: T2, P2X4 receptor (mouse (endogenous in mouse bladder)); assay: co-IP; anti-P2X4 antibody (Alomone APR-002) immobilised on amine-reactive resin beads (Pierce Co-IP Kit), incubated with native mouse bladder lysate (wild type and P2X4-/-); bound (IP) and non-bound (FT) fractions blotted for P2X1, P2X4 and Nt5e

Binder	binding [1]	binding [2]
B1	no binding	
B2	no binding	no binding
B3		no binding
